Test results: PubChem BioAssay AID1345085 (National Center for Advancing Translational Sciences (NCATS), 2018)
The shares of active, inactive and inconclusive entries below differ from those in the screen. Potencies of inconclusive entries are doubtful fits and often do not repeat. Activity calls are given as the source filed them. Calls come from the whole dose curve; as a rule, active = well fitted cell-killing curve with a large enough effect; inconclusive = small, poorly fitted or top-dose-only effect, or effect the other way; inactive = no such curve, though single readings can be large or run the other way.

test system: Es-2; experiment: Confirmatory qHTS for gynecologic anti-cancer compounds from libraries of approved drugs and bioactive compounds; conditions: gynecologic cancer cell panel viability, ATPlite luminescence, 48 h; series mostly up to 57.6 µM; note: nearly all actives have a fitted effect of over 55% in size
Summary of the method: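 Viability is measured as ATP-dependent luciferase light using ATPlite, read 15 min after reagent addition at room temperature. Compounds, in DMSO, span 57.5 uM down to 0.977 nM over 11 threefold steps for 48 h.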
Potency is the fitted concentration of half-maximal effect.

Compound | Potency
CC(C)c1nn(-c2c(Cl)cccc2Cl)c2nc(Cc3ccc(OCCO)cc3)[nH]c(=O)c12 | inconclusive: 0.172 µM [cytotoxic, single point]
Oc1cn2c(n1)Nc1ccc(Cl)c(Cl)c1C2 | inactive
CC1(C)[C@@H](O)CC[C@]2(C)[C@H]3C(=O)C=C4[C@@H]5C[C@@](C)(C(=O)O)CC[C@]5(C)CC[C@@]4(C)[C@]3(C)CC[C@@H]12 | inactive
CCN1CCN(Cc2ccc(Nc3ncc(F)c(-c4cc(F)c5nc(C)n(C(C)C)c5c4)n3)nc2)CC1 | inconclusive: 0.344 µM [rising, partial curve, poor fit]
CNCc1ccc(-c2[nH]c3cc(F)cc4c3c2CCNC4=O)cc1 | inactive
OCc1ccc(-c2ccc(-c3ccc(CO)s3)o2)s1 | inconclusive: 7.49 µM [cytotoxic, partial curve]
COc1cc2nccc(Oc3ccc(NC(=O)C4(C(=O)Nc5ccc(F)cc5)CC4)cc3)c2cc1OC | inconclusive: 43.2 µM [cytotoxic, single point]
COc1cccc2cc(-c3nc(C4CCC(C(=O)O)CC4)n4ncnc(N)c34)[nH]c12 (stereo unspecified) | inconclusive: 4.32 µM [cytotoxic, full curve]
Cc1ccc(NC(=O)c2ccc(CN3CCN(C)CC3)cc2)cc1Nc1nccc(-c2cccnc2)n1 | inactive
O=c1[nH]c(=O)n([C@H]2C[C@H](O)[C@@H](CO)O2)cc1C(F)(F)F | inconclusive: 10.9 µM [cytotoxic, partial curve]
CS(=O)(=O)c1ccc(C(=O)Nc2ccc(Cl)c(-c3ccccn3)c2)c(Cl)c1 | inactive

As a short view, some entries already given:
Compound | Potency
CNCc1ccc(-c2[nH]c3cc(F)cc4c3c2CCNC4=O)cc1 | inactive
OCc1ccc(-c2ccc(-c3ccc(CO)s3)o2)s1 | inconclusive: 7.49 µM [cytotoxic, partial curve]
